Results are given in words; binding and its absence hold for the method and conditions named. Some results given as binding are weak or reduced against the parent protein; the word gives no strength. Tags and fused reporters may be left off the sequences shown.
Target: T1, human plasminogen (human, UniProt P00747 20-810, limits assumed)
T1 construct: also called Plg
Assay: ELISA, plate-coated human plasminogen, His-tagged VK and VH peptides bridged and detected by rabbit anti-His tag IgG and HRP anti-rabbit IgG, A450

Protein sequences, listed by entry. Tags and fused reporters are not part of them. Residues count along the entry.
UniProt P00747, residues 20-810: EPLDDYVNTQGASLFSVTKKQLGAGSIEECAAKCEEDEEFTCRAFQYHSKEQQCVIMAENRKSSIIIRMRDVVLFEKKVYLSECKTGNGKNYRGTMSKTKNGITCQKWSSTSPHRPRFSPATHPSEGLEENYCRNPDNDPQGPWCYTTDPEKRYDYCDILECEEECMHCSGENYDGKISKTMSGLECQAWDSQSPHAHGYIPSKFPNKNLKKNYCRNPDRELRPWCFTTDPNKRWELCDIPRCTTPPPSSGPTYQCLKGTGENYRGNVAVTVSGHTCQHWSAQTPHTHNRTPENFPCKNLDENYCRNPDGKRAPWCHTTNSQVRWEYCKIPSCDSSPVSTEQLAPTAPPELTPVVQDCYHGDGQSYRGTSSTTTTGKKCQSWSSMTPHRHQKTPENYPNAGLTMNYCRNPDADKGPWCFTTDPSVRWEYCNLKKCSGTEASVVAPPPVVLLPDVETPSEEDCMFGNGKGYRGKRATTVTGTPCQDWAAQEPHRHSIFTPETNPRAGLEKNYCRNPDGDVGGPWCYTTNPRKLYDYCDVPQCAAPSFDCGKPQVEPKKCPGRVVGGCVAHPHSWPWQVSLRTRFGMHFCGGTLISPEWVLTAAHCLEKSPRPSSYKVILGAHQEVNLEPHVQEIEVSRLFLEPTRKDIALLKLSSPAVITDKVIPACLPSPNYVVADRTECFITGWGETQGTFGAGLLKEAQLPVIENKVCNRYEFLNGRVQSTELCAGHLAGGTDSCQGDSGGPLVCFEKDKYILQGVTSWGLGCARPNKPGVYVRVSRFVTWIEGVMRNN

B1: VKc1+VHc3 (His-tagged VKc1 domain peptide combined with His-tagged VHc3 domain peptide) (protein)
VL: RSDIKMTQSPSSMYASLGERVTITCKASQDINSYLSWFQQKPGKSPKTLIYRANRLVDGVPSRFSGSGSGQDYSLTISSLEYEDMGIYYCLQYDEFPFTFGSGTKLEIKDIPWQGLNDIFEAQKIEWHGSHHHHHH
VH: RSEVQLQQSGAELARPGASVKLSCKASGYTFTSYGISWVKQRTGQGLEWIGEIYPNTYYNEKFKGKATLTEDKSSSTAYMELRSLTSEDSAVYFCARHVTVVATDYWGQGTTLTVSSDIPWQGLNDIFEAQKIEWHGSHHHHHH
- binding: binds

B2: VKc5+VHc4 (His-tagged VKc5 domain peptide combined with His-tagged VHc4 domain peptide) (protein)
VL: RSDIQMTQSPASLSVSVGETVTITCRASENIYSNLAWYQQKQGKSPQLLVYAATNLADGVPSRFSGSGSGTQYSLKINSLQSEDFGSYYCQHFWGTPYTFGGGTKLEIKDIPWQGLNDIFEAQKIEWHGSHHHHHH
VH: RSEVQLQQSGAELVRPGTSVKMSCKASIYPGGGYAIGWAKQRPGHGLEWIGDIYPGGGYANYNENFKGKATLTADKSSNTAYMQFSSLTSEDSAIYYCARFNYGNHWYFDVWGTGTTVTVSSDIPWQGLNDIFEAQKIEWHGSHHHHHH
- binding: binds

Reference: patent WO2024071112A1 (dated 2024)
